# In the supplement of paper PMC3334620:
# The full ranking holds about 33,000 sequences; the median of “E-score (-0.5 to 0.5)” is about -0.0014, and the highest 2% start at about 0.25. Some of the results follow.
# Target: T1, Cad1 (UniProt P24813)
# T1 sequence: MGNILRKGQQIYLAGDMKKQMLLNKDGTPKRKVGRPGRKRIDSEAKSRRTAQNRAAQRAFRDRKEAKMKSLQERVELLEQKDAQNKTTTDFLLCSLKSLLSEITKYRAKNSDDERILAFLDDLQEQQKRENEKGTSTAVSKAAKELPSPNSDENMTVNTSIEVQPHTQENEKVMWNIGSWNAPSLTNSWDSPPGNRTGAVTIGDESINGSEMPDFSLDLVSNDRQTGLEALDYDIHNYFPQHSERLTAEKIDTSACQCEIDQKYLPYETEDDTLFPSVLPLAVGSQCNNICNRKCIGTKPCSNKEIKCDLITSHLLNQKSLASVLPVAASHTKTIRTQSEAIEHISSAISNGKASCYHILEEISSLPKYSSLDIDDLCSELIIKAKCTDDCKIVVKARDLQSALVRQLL
# Test: PBM E-score (8-mer binding enrichment) (E-score (-0.5 to 0.5)); higher = stronger / more preferred TF binding
# Details: protein concentration: 100 nM; construct: GST-full length
# Summary of the method: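 Each ungapped eight-base word and its reverse complement, pooled, received an E-score from the Universal PBM Analysis Suite. Underlying scans, normalised with masliner, recorded fluorescent anti-GST bound to GST-tagged yeast transcription factors. These were applied at about 100-200 nM to universal all-10-mer Agilent arrays double-stranded by primer extension.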
row,Sequence,PBM E-score
1,CATAGGCA,-0.104
2,GTCACTTA,0.151
3,ATGGGCCG,-0.253
4,TTAATTAA,0.0562
5,GACGCATC,0.169
6,CCGCTGTA,0.0103
7,CGCCCACG,-0.15
8,ACGACTCA,-0.148
9,CAATCGCA,0.00664
10,GACCAGGC,-0.124
11,ACGCTTAT,-0.0377
12,GAGTCCTA,-0.12
13,ATAGGGTA,0.00484
14,GCAGAGCA,-0.241
15,AACTCCAC,0.0188
16,AAGGTCAA,-0.232
17,CTTGCGAC,-0.144
18,TAATTCCA,0.0167
19,ATTTGGAA,0.149
20,CTAGGATC,-0.0767
21,AGATTAGC,0.125
22,GTGCAGAA,0.0618
23,AGAGACAG,-0.11
24,TCGGTGCA,0.14
25,TAGTGGAA,-0.162

row,Sequence,PBM E-score
1,CTCACATA,-0.0775
2,TGAAGGCA,-0.0429
3,CATGCATA,0.156
4,GCTTAACA,0.073
5,CGGCCCCA,-0.307
6,ATCGAGCC,-0.0609
7,GCGCCGGA,-0.0244
8,CGGCGATC,0.103
9,CCGGCAGA,-0.0597
10,AGCTGTGA,0.106
11,CTTTAGTA,0.174
12,AGAATGAT,0.0516
13,AAATCCAG,0.105
14,GTTCGTAA,0.119
15,GTTGTCCA,0.083
16,AAGTACTC,0.0171
17,CAATAGTA,0.137
18,AAGGTGTA,-0.0945
19,CACTGCCA,0.133
20,GGGGGACC,-0.409
21,CGATCTAA,0.134
22,AACCCAGT,-0.114
23,AAAGCATT,0.117
24,CCATGCAA,0.119
25,GCGACTAC,0.0159

# Some of the entries above, reformatted:
row	Sequence	PBM E-score
16	AAGTACTC	0.0171
17	CAATAGTA	0.137
18	AAGGTGTA	-0.0945
19	CACTGCCA	0.133
20	GGGGGACC	-0.409
21	CGATCTAA	0.134
22	AACCCAGT	-0.114

# Continuation.

row,Sequence,PBM E-score
1,ACAACTCC,-0.00409
2,ACTGGCTG,-0.081
3,GTCGAAAA,0.149
4,ATAATGGC,0.162
5,AATGCTCC,-0.18
6,CAACCTAG,-0.0439
7,AGCCTGGG,-0.151
8,CAGTCCCA,-0.156
9,AGAAGTTC,-0.125
10,CTGCTTCC,-0.147
11,CTATACGC,-0.00393
12,TGGCGACA,-0.0568
13,AATTAACA,0.123
14,TAAAACTA,0.152
15,ATCCGGGG,-0.0124
16,AAAGGTTC,-0.175
17,TCAGTGCA,0.0799
18,GAACACAC,0.0786
19,CAGCAGGA,0.17
20,AACCGGGA,0.00913
21,AAGGGAAG,-0.0992
22,CTTGGTCC,-0.0573
23,CACAACAG,-0.247
24,AGAATACG,-0.0397
25,CAATGGTC,0.0909

row,Sequence,PBM E-score
1,CAAATCCG,0.0491
2,CAGTTAGA,-0.0457
3,CGTCACAA,0.0812
4,CGAGACCA,-0.0428
5,ATTCGTAA,0.26
6,GATACCGC,0.122
7,ATCATGTA,0.157
8,ATGTCATG,0.178
9,TATACACA,0.13
10,GCAAGCAC,-0.156
11,GCCTGAGA,-0.169
12,AAGAACTC,0.024
13,CATGGGCG,0.0134
14,CTAAGGTC,-0.0136
15,GGACGAGA,-0.112
16,ATACGCTG,0.156
17,ATTCTATA,0.0761
18,TCCTATCA,-0.0965
19,GGTAGCGA,-0.0509
20,CTCGTTCC,0.0398
21,ACAAAATG,0.216
22,CTACAAGC,0.00321
23,ACGATTAC,0.228
24,GATTAGGC,0.156
25,CATGGCCA,0.0186

row,Sequence,PBM E-score
1,CCAGAGCA,-0.00085
2,CCTTAACC,-0.244
3,CGGATACA,0.182
4,AATTGACG,-0.017
5,CCGCATCA,-0.00697
6,GTTACGCA,0.0739
7,CAGTGGAA,-0.0557
8,AGATCCTG,-0.0555
9,CAGTACCA,-0.0164
10,CTTCCTCA,-0.0682
11,AATTGATA,0.206
12,ATGACACA,0.194
13,AGCGGGAA,0.00454
14,ATGATCGC,-0.112
15,CCCCTCTC,-0.317
16,CGAACTCA,0.0536
17,GCAGCCAC,0.0416
18,ATACTCCA,-0.0197
19,ACCCTGTG,-0.0694
20,CCCGGTTA,-0.276
21,AACTCCAT,-0.00749
22,GCGGTTCC,0.0736
23,AAACGCGT,0.0821
24,CAATCTCA,0.0264
25,AAACCAGT,0.0211

# An excerpt of these results, tab-delimited.
row	Sequence	PBM E-score
5	CCGCATCA	-0.00697
6	GTTACGCA	0.0739

# (further entries)

row,Sequence,PBM E-score
1,CGGCCGCA,0.134
2,ACGGAATC,0.0332
3,AAAAGTCG,0.0124
4,GTGATTAA,0.228
5,GATTCTAC,-0.0358
6,GCACGACA,0.00295
7,TCGAGAGA,0.00679
8,AACTGGCG,-0.00717
9,CGAGGGAC,-0.252
10,CTACCTAG,-0.0511
11,AAGGTAAT,0.14
12,CTAAGCCC,-0.0174
13,GATGTCGA,0.0845
14,CTGCCCTA,-9e-05
15,AAGAATGG,-0.094
16,CGATCGTA,0.148
17,AATATTTC,0.264
18,AGTTTGCG,0.0342
19,TAGGAGCA,-0.179
20,ATAGGGGA,-0.148
21,GGCCGTGA,-0.022
22,GCAGTCGC,0.0474
23,AGGTACCC,-0.138
24,CTTATAGC,0.0436
25,CATCCAAC,-0.0683

row,Sequence,PBM E-score
1,ATGAGGCA,-0.148
2,ATATGCGC,0.0876
3,ATATCATA,0.166
4,GACGTTGC,0.112
5,AACCCGGG,-0.0945
6,GAGGGTGA,-0.138
7,TAGCTAGA,0.036
8,AAGTACGG,-0.0837
9,CATAGTAG,0.0761
10,CTATGAGC,-0.113
11,AAGTCCCC,-0.285
12,CAATGCTC,-0.0896
13,ATTGTAAG,0.00166
14,CAAACTTG,0.0981
15,CGGCACCG,0.123
16,AATGCCGC,0.186
17,CACGACTC,0.0563
18,GAACAACC,0.067
19,CAGAGGGC,-0.213
20,ACTACAGG,0.0099
21,ATGACGAA,0.145
22,CTACCAGC,-0.0889
